# Laboratory results: PubChem BioAssay AID1259308 (NCATS, 2017)
# Test: 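Genes whose loss raises luciferase production in HEK293 cells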 (primary screen)
# Cell system: human HEK293 embryonic kidney cells stably expressing firefly luciferase (HEK-CMV-Luc2-Hygro)
# Reagents: single siRNA against human genes, 0.8 pmol siRNA per well
# Duration: 72 h
# Measurement: 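Reporter luminescence and viable-cell signal on separate replicate plates, given as percent of non-targeting control and median/MAD z-scores, plus per-cell luciferase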
# Direction: total luciferase, z-score and total luciferase, % of control: higher = more reporter protein produced; luciferase per cell, z-score: higher = more reporter output per viable cell; viable cells, % of control: higher = more viable cells
# Rule for the call: 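Active when the median/MAD z-score for overall luciferase is greater than 3; a gene was taken forward for validation with new siRNAs if at least two of its three siRNAs passed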
# Calls: active = raised luciferase; inactive = no rise
# The deposit covers about 59,000 reagents; shown is an unselected part. In the full data, about 1,510 (2.6%) were called active. 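Calls use total luciferase alone and ignore viability, so some active siRNAs may act by altering cell number.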 Reagents against one gene are numbered here.
gene knocked down,reagent,"total luciferase, z-score","total luciferase, % of control","luciferase per cell, z-score","viable cells, % of control",activity call
RPL7L1P5,1,1.08,103,0.84,92.6,inactive
RPL7L1P5,2,0.623,94.3,-0.815,131,inactive
RPL7L1P5,3,0.163,85.1,0.366,86.4,inactive
PCDHGA9,1,-0.174,78.4,-0.136,90.8,inactive
PCDHGA9,2,-0.421,73.5,-0.265,88.1,inactive
PCDHGA9,3,0.886,99.5,0.866,88.5,inactive
SLC5A1,1,0.184,85.5,0.305,88.2,inactive
SLC5A1,2,-0.213,77.7,0.203,82.3,inactive
SLC5A1,3,2.63,134,1.63,97.6,inactive
TTC34,1,2.14,124,1.44,95.2,inactive
TTC34,2,0.312,88.1,0.606,83.9,inactive
TTC34,3,-0.0336,81.2,-0.904,115,inactive
TTC34,4,0.066,83.2,-0.274,99.9,inactive
TTC34,5,-1.78,46.5,-2.14,91.2,inactive
TTC34,6,0.0234,82.4,-0.318,100,inactive
TRIB1,1,-0.377,74.4,0.0236,82.6,inactive
TRIB1,2,0.218,86.2,-0.17,101,inactive
TRIB1,3,-1.48,52.5,-1,76.3,inactive
ADI1,1,-0.351,74.9,-1.3,118,inactive
ADI1,2,3.84,158,2.24,98.1,active
ADI1,3,-0.376,74.4,0.071,81.6,inactive
NXNL2,1,0.0825,83.5,0.268,87,inactive
NXNL2,2,-1.47,52.7,-1.2,80.9,inactive
NXNL2,3,-1.15,59,0.426,58.9,inactive
